For the experiment, the target named is transporter associated with antigen presentation (TAP), TAP1 subunit (human (endogenous in HeLa)) (UniProt Q03518). The experiment is described as follows: co-IP; HeLa lines pre-treated with NEM (20 mM, pH 7.4), lysed in 1% digitonin, precleared, immunoprecipitated with anti-TAP1 or anti-tapasin antibodies, non-reducing 8% SDS-PAGE, immunoblot (anti-V5; ERp57). (In general: A western blot detects proteins with antibodies after separation by electrophoresis.)

These results are taken from publication PMC9359109.

No constants are given. Whether binding was seen depends on the method and setting. In cells and extracts the contact can be indirect. Some binding calls cover weakened binding; strength is not graded here.

For ERp57 (from UniProt P30101 25-505), the binding result is recorded as “binds”.
